Test [1] concerns the target human RECQL5, wild type, FLAG-tagged (GAL::RECQL5) (human) (UniProt O94762). Briefly: co-IP; whole cell extracts of yeast expressing FLAG-tagged RECQL5 constructs from the GAL1 promoter (galactose 4 h); precipitation with FLAG antibody on Dynabeads Protein A, 3 h at 4 °C; lysis buffer 50 mM Tris HCl pH 7.5, 100 mM NaCl, 1.5 mM MgCl2, NP40, DTT; blot for Rpb1.
The target in test [2] is Rpb1 subunit of yeast RNA polymerase II (S. cerevisiae (endogenous in yeast cells)) (UniProt P04050). Briefly: co-IP; whole cell extracts of yeast expressing FLAG-tagged RECQL5 constructs from the GAL1 promoter (galactose 4 h); precipitation with anti-Rpb1 (8WG16); blot for FLAG.

Protein sequences, listed by entry. Tags and fused reporters are not part of them.
UniProt O94762: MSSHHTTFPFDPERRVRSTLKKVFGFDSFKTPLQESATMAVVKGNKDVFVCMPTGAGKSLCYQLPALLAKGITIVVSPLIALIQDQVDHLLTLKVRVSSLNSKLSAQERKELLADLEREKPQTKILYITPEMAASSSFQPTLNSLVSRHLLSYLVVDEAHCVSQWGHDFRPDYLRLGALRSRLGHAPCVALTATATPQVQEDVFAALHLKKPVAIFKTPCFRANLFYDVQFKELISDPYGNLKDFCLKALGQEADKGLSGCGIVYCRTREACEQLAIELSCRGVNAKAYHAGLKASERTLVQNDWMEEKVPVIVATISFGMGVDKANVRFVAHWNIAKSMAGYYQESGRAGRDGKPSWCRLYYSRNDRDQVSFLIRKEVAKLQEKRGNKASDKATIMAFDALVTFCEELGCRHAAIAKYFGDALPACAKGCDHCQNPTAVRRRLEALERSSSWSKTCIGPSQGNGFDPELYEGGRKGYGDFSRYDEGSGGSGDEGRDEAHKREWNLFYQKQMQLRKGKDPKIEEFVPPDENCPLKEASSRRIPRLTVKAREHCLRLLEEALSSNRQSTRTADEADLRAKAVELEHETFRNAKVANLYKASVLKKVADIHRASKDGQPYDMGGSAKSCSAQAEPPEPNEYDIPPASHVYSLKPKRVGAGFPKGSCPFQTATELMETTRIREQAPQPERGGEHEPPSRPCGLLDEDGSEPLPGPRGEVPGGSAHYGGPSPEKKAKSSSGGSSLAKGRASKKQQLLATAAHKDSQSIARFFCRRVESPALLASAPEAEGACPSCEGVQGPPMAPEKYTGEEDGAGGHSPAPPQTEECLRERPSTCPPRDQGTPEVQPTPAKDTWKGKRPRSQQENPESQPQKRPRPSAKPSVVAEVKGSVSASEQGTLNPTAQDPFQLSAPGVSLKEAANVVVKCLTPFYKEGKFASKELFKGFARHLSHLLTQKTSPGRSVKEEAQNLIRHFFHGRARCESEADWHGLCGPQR
UniProt P04050: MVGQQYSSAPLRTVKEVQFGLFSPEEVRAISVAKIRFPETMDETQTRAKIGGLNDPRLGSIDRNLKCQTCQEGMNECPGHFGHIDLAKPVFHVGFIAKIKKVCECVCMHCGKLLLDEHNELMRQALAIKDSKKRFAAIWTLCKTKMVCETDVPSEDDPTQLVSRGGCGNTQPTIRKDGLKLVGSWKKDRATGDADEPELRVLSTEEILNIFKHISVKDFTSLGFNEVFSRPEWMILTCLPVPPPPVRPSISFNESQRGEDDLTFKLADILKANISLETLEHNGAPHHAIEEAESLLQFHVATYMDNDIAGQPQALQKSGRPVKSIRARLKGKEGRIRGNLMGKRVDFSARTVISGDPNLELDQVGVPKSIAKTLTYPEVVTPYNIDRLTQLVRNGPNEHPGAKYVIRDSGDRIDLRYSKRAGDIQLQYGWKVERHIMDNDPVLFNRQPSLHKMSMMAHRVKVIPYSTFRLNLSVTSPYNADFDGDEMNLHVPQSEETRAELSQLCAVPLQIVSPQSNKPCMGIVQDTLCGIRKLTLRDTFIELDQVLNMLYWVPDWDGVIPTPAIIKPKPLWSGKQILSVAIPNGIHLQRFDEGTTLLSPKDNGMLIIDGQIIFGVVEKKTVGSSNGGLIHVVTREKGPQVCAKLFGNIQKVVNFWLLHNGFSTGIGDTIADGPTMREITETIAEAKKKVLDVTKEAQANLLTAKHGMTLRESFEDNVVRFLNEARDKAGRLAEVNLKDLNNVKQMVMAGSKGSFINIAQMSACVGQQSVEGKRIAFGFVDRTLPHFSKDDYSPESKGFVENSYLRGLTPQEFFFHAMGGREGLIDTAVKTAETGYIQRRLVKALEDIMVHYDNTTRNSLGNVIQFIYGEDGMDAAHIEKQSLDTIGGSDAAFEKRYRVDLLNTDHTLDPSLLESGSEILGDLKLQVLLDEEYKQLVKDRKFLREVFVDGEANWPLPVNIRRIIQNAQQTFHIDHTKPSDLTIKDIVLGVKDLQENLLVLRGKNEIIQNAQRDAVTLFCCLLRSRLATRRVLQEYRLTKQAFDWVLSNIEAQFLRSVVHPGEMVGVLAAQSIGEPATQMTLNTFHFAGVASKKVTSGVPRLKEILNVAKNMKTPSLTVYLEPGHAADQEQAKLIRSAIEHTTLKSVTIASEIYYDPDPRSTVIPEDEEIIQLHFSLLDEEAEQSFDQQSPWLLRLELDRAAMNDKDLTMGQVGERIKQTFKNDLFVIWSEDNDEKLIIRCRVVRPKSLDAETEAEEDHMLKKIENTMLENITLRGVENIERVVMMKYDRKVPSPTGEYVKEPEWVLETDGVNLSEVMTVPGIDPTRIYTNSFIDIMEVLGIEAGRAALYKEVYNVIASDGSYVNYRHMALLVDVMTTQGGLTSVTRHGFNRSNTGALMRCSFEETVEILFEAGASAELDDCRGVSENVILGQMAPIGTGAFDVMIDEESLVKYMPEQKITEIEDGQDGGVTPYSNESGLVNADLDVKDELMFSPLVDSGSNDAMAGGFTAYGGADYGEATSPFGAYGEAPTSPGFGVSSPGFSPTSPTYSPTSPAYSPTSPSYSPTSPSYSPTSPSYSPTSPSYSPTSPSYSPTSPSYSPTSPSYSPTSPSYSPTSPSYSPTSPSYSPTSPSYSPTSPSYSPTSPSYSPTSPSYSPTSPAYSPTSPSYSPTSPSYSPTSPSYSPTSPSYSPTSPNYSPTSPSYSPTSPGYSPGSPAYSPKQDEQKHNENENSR

No constants are given. Whether binding was seen depends on the method and setting. In cells and extracts the contact can be indirect. Some results given as binding are weak or reduced against the parent protein; the word gives no strength.

The results in this text go back to paper PMC11128410.

As to “Rpb1 subunit of yeast RNA polymerase II (from UniProt P04050 1-1733)”, the binding entry in test [1] is reported as “binds”.

For the substance “human RECQL5, wild type, FLAG-tagged (GAL::RECQL5) (from UniProt O94762 1-991) (enzyme)”, in test [2], the binding result is “binds”.
